Assay results published in PubChem BioAssay AID588497 (NMMLSC, 2011).
The campaign covered roughly 360,000 compounds. About 780 (0.22%) were called active. Inconclusive results, whose numbers are uncertain, are shown with a selection of clear calls. Cut-off read from the data, not from the text of the source: active = inhibition above about 35% (passing the limit was not always enough); inconclusive = no clear call, values can overlap the other calls.

Test system: Botulinum neurotoxin type F light chain protease (Clostridium botulinum)
Test: BoNT/F light chain protease inhibitors, primary screen, biochemical, flow cytometry, MLPCN library (AID 588497); note: plate controls were buffer without enzyme for full effect and enzyme alone for no effect
Settings: Multiplex microsphere protease cleavage assay, at 10 µM, active compounds read high

Structure (SMILES)	inhibition
COc1ccc(Cl)cc1NC(=O)Nc1ccc(C(=O)N2CCOCC2)cc1	inactive: -10%
COc1ccc(C)cc1NC(=O)CCC(=O)Nc1nnc(C2CCCCC2)s1	inactive: -5.6%
O=C(O)c1cccc(COc2cccc3ccccc23)c1	inconclusive: 2.5%
Cc1ccc(NC(=O)C(c2ccccc2)c2ccccc2)nc1	inactive: 1.2%
Cc1cc(N(C)C)nc(SC(C)C)n1	inconclusive: 16.4%
O=C(C[N+]12CCC(CC1)C(OC(=O)c1ccccc1)C2)c1ccc([N+](=O)[O-])cc1 (configuration not stated)	inconclusive: 30.3%
Cc1[nH]nc2c1C(=O)CCC2	inconclusive: -1.5%
COc1ccccc1N1CCN(CC(=O)c2c[nH]c3ccccc23)CC1	inconclusive: 42.5%
Cc1cccc(CCNS(=O)(=O)c2ccc3c(c2)oc(=O)n3C)c1	inactive: -4.1%
COc1ccc(C(=O)Nc2cccc3cccnc23)cc1OC	inactive: -3.5%
O=C(CCCn1cnc2ccccc2c1=O)Nc1ccccc1F	inconclusive: -2%
Cc1ccc2oc(C(=O)N3CCC(O)(c4ccccc4)CC3)c(C)c2c1	inconclusive: -16.8%
O=C(CCN1C(=O)COc2ccccc21)NCCN1CCOCC1	inactive: -1.3%
COC(OC)c1ccnc(-c2ccc(OC(=O)c3cccs3)cc2)n1	inactive: -1.4%
O=C(Cc1cccs1)NCc1ccco1	inactive: -8.8%
N#Cc1ccccc1NC(=O)CN1CCN(Cc2ccccc2)CC1	active: 46.1%
Cc1ccc2nc(SCC(=O)Nc3ccc4[nH]c(=O)[nH]c4c3)[nH]c2c1	inconclusive: -0.8%
CC1CCN(CC(O)COC2CC(C)CC(C)(C)C2)CC1 (configuration not stated)	inconclusive: -14.9%
O=C1CCC(C(=O)OCc2c(Cl)cccc2Cl)N1 (configuration not stated)	inactive: 1.4%
Cc1c(C(=O)O)cccc1-c1ccc(/C=C2\SC(=O)NC2=O)o1	inconclusive: -48.6%
Cc1nc(Oc2ccccc2)c2oc3ccccc3c2n1	inactive: -12.6%
N#C/C(=C\c1cccc(O)c1)C(=O)N1CCCCC1	active: 47.2%
CCN(CC)C(=O)CSc1nc(O)c(Cc2ccccc2)c(=O)n1-c1ccc(C)cc1	inconclusive: 127%
N/C(=N\OC(=O)c1cccc2ccccc12)c1ccncc1	inconclusive: -5.4%

Reformatted as labelled records: 2 of the compounds above
COc1ccc(C(=O)Nc2cccc3cccnc23)cc1OC
  inhibition: inactive: -3.5%
N#Cc1ccccc1NC(=O)CN1CCN(Cc2ccccc2)CC1
  inhibition: active: 46.1%

(more compounds)

Structure (SMILES)	inhibition
CCOC(=O)c1cnc2c(C)cccc2c1NCCCN1CCOCC1	inconclusive: -22.7%
Cc1cc(=O)n2c(n1)NC(Nc1cccc(C)c1C)=NC2c1ccccc1 (configuration not stated)	inactive: -4.7%
Cc1nnc(SCc2c(Cl)cccc2Cl)n(N)c1=O	inactive: -1%
Cc1ccc(S(=O)(=O)NCCc2cccs2)cc1	inconclusive: 1.1%
O=S(=O)(Nn1c(O)c(C=C2N=c3ccccc3=N2)sc1=S)c1ccccc1	inactive: 3.4%
O=C(NCCc1ccc(Cl)cc1)C1CCCN1C(=O)Nc1ccccc1 (configuration not stated)	inconclusive: 10.3%
O=S(=O)(NCC(c1ccco1)N1CCCCC1)c1ccccc1C(F)(F)F (configuration not stated)	inconclusive: 7%
O=C1c2ccccc2NC(c2ccc(O)c(O)c2)N1c1ccccc1Cl (configuration not stated)	inconclusive: 9.7%
CCC(C)C(=O)Nc1ccccc1N1CCN(c2ccc(F)cc2)CC1 (configuration not stated)	inconclusive: -27.5%
Cc1ccc(C2CC(c3cccs3)n3nc(N)nc3N2)cc1 (configuration not stated)	inactive: -1.5%
CCOc1ccccc1CNC(=O)C1CCN(c2nnc(C)c3c(C)n(-c4ccc(C)cc4)nc23)CC1	inactive: 11.4%
CC(=O)CC(C)(C)NC(C)=S	inconclusive: 16.1%
C=CCn1c(SCC(=O)c2c(N)n(C3CC3)c(=O)[nH]c2=O)nnc1-c1ccc(OC)cc1	inconclusive: -7%
Cc1ccccc1NC(=O)N1CCCN(c2ccc(C#N)cn2)CC1	inconclusive: -16.9%
O=C(O)CC1(CC(=O)NCc2ccc(-c3cccs3)cc2)CCCCC1	inconclusive: -6.5%
COC(=O)Cc1ccc(NC(=S)NCCO)cc1	inconclusive: 24.5%
CCc1ccc(NS(=O)(=O)c2cccc3nsnc23)cc1	inconclusive: -3.9%
CC(=O)NC(C(=O)c1ccccc1)N1CCCCC1 (configuration not stated)	inconclusive: 20.7%
CCCN1C2CCCC1CC(NC(=O)NC13CC4CC(CC(C4)C1)C3)C2 (configuration not stated)	inconclusive: 8.4%
O=C(Cc1ccc(S(=O)(=O)N2CCOCC2)s1)Nc1ccccc1N1CCCC1	inconclusive: 13.8%
CCOC(=O)/C(C#N)=C/c1cccc([N+](=O)[O-])c1	inconclusive: -4.5%
Cc1ccnc(N2CCC(C(=O)Nc3nnc(C)s3)CC2)n1	inactive: -8.4%
CCOC(=O)c1ccc(NC(=O)CSc2nccn2C)cc1	inconclusive: 20.2%
